According to publication PMC8764100:
Results are given in words; binding and its absence hold for the method and conditions named. Binding seen in cells or lysates may run through a third protein. Some results given as binding are weak or reduced against the parent protein; the word gives no strength.

Amino acid sequences for entries named in this document (tags omitted).
UniProt Q9UQE7: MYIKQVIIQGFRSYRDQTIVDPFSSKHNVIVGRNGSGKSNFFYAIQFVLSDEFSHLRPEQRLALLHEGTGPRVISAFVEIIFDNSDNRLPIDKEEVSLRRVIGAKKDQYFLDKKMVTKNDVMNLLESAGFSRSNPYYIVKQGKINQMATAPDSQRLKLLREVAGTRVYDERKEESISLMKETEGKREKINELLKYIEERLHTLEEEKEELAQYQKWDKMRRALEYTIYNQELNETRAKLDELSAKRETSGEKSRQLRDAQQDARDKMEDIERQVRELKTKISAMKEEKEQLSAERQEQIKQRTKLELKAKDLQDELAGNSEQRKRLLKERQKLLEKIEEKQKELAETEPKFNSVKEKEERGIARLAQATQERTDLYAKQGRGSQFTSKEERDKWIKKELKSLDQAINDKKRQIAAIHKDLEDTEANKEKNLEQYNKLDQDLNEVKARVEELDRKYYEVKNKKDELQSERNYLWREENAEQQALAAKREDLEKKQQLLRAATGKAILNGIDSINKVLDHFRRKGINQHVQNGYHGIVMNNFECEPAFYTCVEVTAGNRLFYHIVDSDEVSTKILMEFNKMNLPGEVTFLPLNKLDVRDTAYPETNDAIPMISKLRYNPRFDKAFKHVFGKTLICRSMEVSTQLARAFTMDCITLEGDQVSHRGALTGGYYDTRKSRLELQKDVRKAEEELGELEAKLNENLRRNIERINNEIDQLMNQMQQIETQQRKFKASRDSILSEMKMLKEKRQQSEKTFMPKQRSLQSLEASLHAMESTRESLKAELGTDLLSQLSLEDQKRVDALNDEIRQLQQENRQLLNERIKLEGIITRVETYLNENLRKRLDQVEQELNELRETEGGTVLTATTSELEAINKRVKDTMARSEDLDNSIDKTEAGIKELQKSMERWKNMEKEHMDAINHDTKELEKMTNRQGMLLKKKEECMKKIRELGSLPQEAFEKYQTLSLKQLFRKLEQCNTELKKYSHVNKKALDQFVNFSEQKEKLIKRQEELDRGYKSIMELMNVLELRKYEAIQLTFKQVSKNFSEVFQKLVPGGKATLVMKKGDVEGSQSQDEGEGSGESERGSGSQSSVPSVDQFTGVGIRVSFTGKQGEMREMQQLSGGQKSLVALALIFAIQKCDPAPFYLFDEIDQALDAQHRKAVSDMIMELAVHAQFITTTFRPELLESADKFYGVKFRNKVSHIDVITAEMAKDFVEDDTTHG
UniProt P09874: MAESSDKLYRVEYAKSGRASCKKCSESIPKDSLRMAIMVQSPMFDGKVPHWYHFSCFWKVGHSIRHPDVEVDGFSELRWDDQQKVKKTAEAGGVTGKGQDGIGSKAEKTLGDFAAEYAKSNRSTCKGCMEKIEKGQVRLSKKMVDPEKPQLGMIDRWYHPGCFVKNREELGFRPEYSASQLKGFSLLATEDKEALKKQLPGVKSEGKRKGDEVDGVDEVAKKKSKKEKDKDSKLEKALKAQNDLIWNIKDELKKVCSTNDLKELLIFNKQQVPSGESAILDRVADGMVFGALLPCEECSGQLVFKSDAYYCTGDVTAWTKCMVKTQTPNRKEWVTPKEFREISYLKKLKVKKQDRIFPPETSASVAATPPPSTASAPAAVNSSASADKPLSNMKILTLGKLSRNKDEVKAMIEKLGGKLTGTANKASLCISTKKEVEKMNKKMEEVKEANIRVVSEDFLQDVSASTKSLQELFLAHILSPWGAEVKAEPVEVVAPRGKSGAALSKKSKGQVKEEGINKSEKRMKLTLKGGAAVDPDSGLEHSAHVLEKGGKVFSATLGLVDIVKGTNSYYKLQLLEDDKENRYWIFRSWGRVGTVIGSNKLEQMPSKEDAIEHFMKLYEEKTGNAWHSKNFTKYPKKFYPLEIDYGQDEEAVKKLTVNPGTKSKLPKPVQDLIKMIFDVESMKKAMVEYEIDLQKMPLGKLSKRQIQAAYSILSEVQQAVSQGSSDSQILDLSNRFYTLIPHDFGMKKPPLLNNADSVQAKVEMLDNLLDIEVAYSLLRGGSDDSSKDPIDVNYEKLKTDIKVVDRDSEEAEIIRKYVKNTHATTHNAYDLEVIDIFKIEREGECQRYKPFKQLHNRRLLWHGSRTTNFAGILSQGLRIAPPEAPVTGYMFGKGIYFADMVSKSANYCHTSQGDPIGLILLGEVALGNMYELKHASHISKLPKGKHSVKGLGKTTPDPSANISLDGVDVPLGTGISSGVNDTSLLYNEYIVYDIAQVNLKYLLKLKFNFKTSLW

Target: SMC3 component of cohesin (human (endogenous in Mutu-LCL)) (UniProt Q9UQE7)
Assay: co-IP; SMC3 antibody (10 ug) or normal rabbit IgG, protein A magnetic beads, lysate of 10 million LCLs in RIPA buffer, with or without 2.5 uM olaparib for 72 h; washed three times in RIPA; immunoblot for SMC3 and PARP1; three biological replicates

binding: binds
Substance: Poly [ADP-ribose] polymerase 1 (PARP1) (from UniProt P09874 1-1014)
